Results published in publication PMC7515738.
For at least one entry, the source does not settle the construct or the ends of the probe. For part of these data: The comparison behind a weaker result is the experiment's own reference, which may not be listed here.

Sequences of proteins named here, by UniProt entry; tags and fusion partners are left off.
UniProt P60842, whole entry, stated change not applied: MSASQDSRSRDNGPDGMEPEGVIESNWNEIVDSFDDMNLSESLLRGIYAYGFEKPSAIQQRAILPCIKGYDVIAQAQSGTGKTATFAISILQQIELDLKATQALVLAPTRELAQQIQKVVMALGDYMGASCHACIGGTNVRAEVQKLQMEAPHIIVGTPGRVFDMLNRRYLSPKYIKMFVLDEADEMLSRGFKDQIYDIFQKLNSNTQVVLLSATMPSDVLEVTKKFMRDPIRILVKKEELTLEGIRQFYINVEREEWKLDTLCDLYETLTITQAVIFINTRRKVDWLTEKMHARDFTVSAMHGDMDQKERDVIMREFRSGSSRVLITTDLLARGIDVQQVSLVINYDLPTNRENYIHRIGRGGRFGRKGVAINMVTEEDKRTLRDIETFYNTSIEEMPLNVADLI

What was measured:
[1] = molecular target: eIF4A1 T242 HippR variant (UniProt P60842); experiment: fluorescence polarization; conditions: FP: 1 uM recombinant protein, FAM-poly r(AG)8, vehicle (0.1% DMSO) or Hipp, 30 min, protein details: His6
eIF4A1 wt = eIF4A1 wt (UniProt P60842); experiment: fluorescence polarization; conditions: hippuristanol, 1 uM protein, RNA binding inhibited, FP: 1 uM recombinant protein, FAM-poly r(AG)8, vehicle (0.1% DMSO) or Hipp, 30 min, protein details: His6

Sequence: AGAGAGAGAGAGAGAG [poly r(AG)8]
- binding result ([1]; hippuristanol, 1 uM protein, not inhibited): binds
- binding result ([1]; no Hipp, similar to wt): binds
- binding result (eIF4A1 wt): binds more weakly
